Source: patent publication EP4066629A1, “METHODS FOR ALTERING THE MICROBIOME INFLUENCED BY ROOTS OF A PLANT USING MICROPEPTIDES” (Université de Rennes 1, priority 2021, dated 2022)
“Also recorded” adds a separate entry of the source. At least one peptide structure holds a part that was inferred or is arguable (an end, a ring closure or a residue). Where a SMILES comes first, the peptide text is derived from it.

Test system: fungi
Experiment: Fungal communities of miPEP-treated plants and unplanted soils (ITS sequencing and qPCR; alpha-/beta-diversity, differential abundance, indicator species)
Format: in vivo, Arabidopsis thaliana

Row | SMILES | fungal indicator species (unplanted soils) | fungal taxa enriched compared with Control (unplanted soils) | fungal taxa enriched compared with Control (distant rhizospheres) | fungal taxa enriched compared with Control (root samples) | fungal taxa enriched compared with Control (distant rhizospheres, listed as miPEP-C) | proportion of Cladosporium and Triparticalcar generea (root samples) | fungal taxa enriched compared with Control (unplanted soils, listed as miPEP-C)
1 | CSCC[C@H](N)C(=O)N[C@H](C(=O)N[C@@H](Cc1c[nH]c2ccccc12)C(=O)N1CCC[C@H]1C(=O)N[C@@H](CC(C)C)C(=O)N[C@@H](CC(C)C)C(=O)N[C@@H](CO)C(=O)N[C@@H](CC(C)C)C(=O)N[C@@H](CO)C(=O)N[C@@H](Cc1ccccc1)C(=O)N[C@@H](CC(C)C)C(=O)N[C@@H](CC(C)C)C(=O)N[C@@H](CO)C(=O)N[C@@H](CCCCN)C(=O)N[C@@H](Cc1ccc(O)cc1)C(=O)N[C@H](C(=O)O)C(C)C)[C@@H](C)O [miPEP159a] (H-MTWPLLSLSFLLSKYV-OH) | a few species | Paraconiothyrium | – | – | – | – | –
2 | CC[C@H](C)[C@H](NC(=O)[C@@H](NC(=O)[C@H](CC(N)=O)NC(=O)[C@H](CCSC)NC(=O)[C@H](CCC(=O)O)NC(=O)[C@H](CC(C)C)NC(=O)[C@@H](NC(=O)[C@H](CCCCN)NC(=O)[C@H](CCCNC(=N)N)NC(=O)[C@H](CC(C)C)NC(=O)CNC(=O)[C@@H](N)CCSC)C(C)C)[C@@H](C)O)C(=O)N[C@@H](Cc1ccccc1)C(=O)N[C@@H](CC(=O)O)C(=O)N[C@@H](CO)C(=O)N[C@@H](CC(C)C)C(=O)N[C@@H](Cc1ccccc1)C(=O)N[C@@H](CC(C)C)C(=O)N[C@@H](CO)C(=O)N[C@@H](Cc1c[nH]cn1)C(=O)O [miPEP159b] (H-MGLRKVLEMNTIFDSLFLSH-OH) | a few species | Pseudogymnoascus | Aspergillus | Pandora | – | – | –
3 | CC[C@H](C)[C@H](NC(=O)[C@H](CC(C)C)NC(=O)[C@H](Cc1ccccc1)NC(=O)[C@@H](NC(=O)[C@H](Cc1c[nH]cn1)NC(=O)[C@@H](NC(=O)[C@H](CCCNC(=N)N)NC(=O)[C@H](CC(C)C)NC(=O)[C@H](CC(N)=O)NC(=O)[C@H](CCC(N)=O)NC(=O)[C@@H](N)CCSC)C(C)C)C(C)C)C(=O)N[C@@H](CCC(=O)O)C(=O)N[C@@H](CO)C(=O)N[C@@H](C)C(=O)N[C@@H](CCCNC(=N)N)C(=O)N[C@@H](CS)C(=O)O [miPEP159c] (H-MQNLRVHVFLIESARC-OH) | – | – | – | Pandora | ASV 72 (Aspergillus, Ascomycota) | greater proportion | Paraconiothyrium; also recorded: Pseudogymnoascus
